Results reported in publication PMC5572705.
These are yes or no findings as the source states them, for the method shown. Binding seen in cells or lysates may run through a third protein. Some entries that bind do so weakly or less than the wild type.

Protein sequences, listed by entry. Tags and fused reporters are not part of them.
UniProt Q13547: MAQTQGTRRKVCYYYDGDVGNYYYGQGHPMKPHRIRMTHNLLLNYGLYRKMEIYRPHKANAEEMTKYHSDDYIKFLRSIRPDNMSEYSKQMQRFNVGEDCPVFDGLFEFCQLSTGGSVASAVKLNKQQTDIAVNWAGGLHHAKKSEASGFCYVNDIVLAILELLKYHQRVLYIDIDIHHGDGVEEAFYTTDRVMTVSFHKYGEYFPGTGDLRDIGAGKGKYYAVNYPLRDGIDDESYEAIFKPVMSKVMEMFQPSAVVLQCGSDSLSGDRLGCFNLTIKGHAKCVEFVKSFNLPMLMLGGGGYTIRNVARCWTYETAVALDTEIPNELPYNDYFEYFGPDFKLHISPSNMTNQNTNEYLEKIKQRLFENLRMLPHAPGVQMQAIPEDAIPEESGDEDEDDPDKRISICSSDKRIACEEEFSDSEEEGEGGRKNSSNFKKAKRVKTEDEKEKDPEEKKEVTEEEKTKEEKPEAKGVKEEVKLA

Target: HDAC1 (histone deacetylase-1) (human (endogenous in THP-1)) (UniProt Q13547)
Assay: co-IP; 1 mg total cell lysate in IP buffer (20 mM HEPES pH 7.9, 75 mM KCl, 2.5 mM MgCl2, 0.1% NP-40) with 5 ug anti-HDAC1 rabbit antibody, 4 C, 3 h; Dynabeads Protein G; five washes; western blot of co-precipitated proteins; cells differentiated (Fig. 3i) or arrested in G1 with mimosine (Fig. 4j)

binding: binds
B1: RB1/p105 (protein, UniProt P06400 1-928)
chain: MPPKTPRKTAATAAAAAAEPPAPPPPPPPEEDPEQDSGPEDLPLVRLEFEETEEPDFTALCQKLKIPDHVRERAWLTWEKVSSVDGVLGGYIQKKKELWGICIFIAAVDLDEMSFTFTELQKNIEISVHKFFNLLKEIDTSTKVDNAMSRLLKKYDVLFALFSKLERTCELIYLTQPSSSISTEINSALVLKVSWITFLLAKGEVLQMEDDLVISFQLMLCVLDYFIKLSPPMLLKEPYKTAVIPINGSPRTPRRGQNRSARIAKQLENDTRIIEVLCKEHECNIDEVKNVYFKNFIPFMNSLGLVTSNGLPEVENLSKRYEEIYLKNKDLDARLFLDHDKTLQTDSIDSFETQRTPRKSNLDEEVNVIPPHTPVRTVMNTIQQLMMILNSASDQPSENLISYFNNCTVNPKESILKRVKDIGYIFKEKFAKAVGQGCVEIGSQRYKLGVRLYYRVMESMLKSEEERLSIQNFSKLLNDNIFHMSLLACALEVVMATYSRSTSQNLDSGTDLSFPWILNVLNLKAFDFYKVIESFIKAEGNLTREMIKHLERCEHRIMESLAWLSDSPLFDLIKQSKDREGPTDHLESACPLNLPLQNNHTAADMYLSPVRSPKKKGSTTRVNSTANAETQATSAFQTQKPLKSTSLSLFYKKVYRLAYLRLNTLCERLLSEHPELEHIIWTLFQHTLQNEYELMRDRHLDQIMMCSMYGICKVKNIDLKFKIIVTAYKDLPHAVQETFKRVLIKEEEYDSIIVFYNSVFMQRLKTNILQYASTRPPTLSPIPHIPRSPYKFPSSPLRIPGGNIYISPLKSPYKISEGLPTPTKMTPRSRILVSIGESFGTSEKFQKINQMVCNSDRVLKRSAEGSNPPKPLKKLRFDIEGSDEADGSKHLPGESKFQQKLAEMTSTRTRMQKQKMNDSMDTSNKEEK
